{"source": "paper PMC545800", "target": "tetratricopeptide repeat (TPR) domain of human PEX5 (Gal4pBD-TPR, plasmid hP87) (Homo sapiens)", "experiment": "two-hybrid; yeast strain PCY3 co-transformed with Gal4pAD-16mer (pGAD.GH) and Gal4pBD-TPR of PEX5 (pAH987 yeast or hP87 human); quantitative beta-galactosidase activity, cells grown in SC-leu-trp at 30°C; lower limit of around 10 Miller Units per mg protein for a productive interaction", "note": "No constants are given. Whether binding was seen depends on the method and setting.", "data": [{"binder": "EEVIRKIAEGLNKAKF", "note": "[carboxy-terminal 16-mer of Archaeoglobus fulgidus 2-nitropropane dioxygenase (Gal4pAD-16mer)]", "values": [{"measurement": "binding", "result": "no binding"}]}]}
